Test results reported in publication PMC3904721, “The BEL1-like family of transcription factors in potato”.

Assays:
Assay in all cases: two-hybrid; Matchmaker system (Clontech), yeast strain pJ69-2A; StBELs in pACT-AD (GAL4 activation domain), KNOX proteins in pBridge (GAL4-binding domain); co-transformation, selection on -Leu/-Trp/-His/-Ade; lacZ induction quantified by β-galactosidase assay (Miller units), three replicate samples
NTH15 (tobacco) = NTH15 (tobacco) (UniProt O64415)
NTH20 (tobacco) = NTH20 (tobacco) (UniProt Q9SXV3)
NTH22 (tobacco) = NTH22 (tobacco) (UniProt Q9SXV4)

Substance: StBEL5 (from UniProt M1A5L2)
- binding (NTH15 (tobacco)): binds
- binding (NTH20 (tobacco)): binds
- binding (NTH22 (tobacco)): binds

Substance: StBEL13 (from UniProt M1AMS7)
- binding (NTH20 (tobacco)): binds
- binding (NTH22 (tobacco)): binds

Substance: StBEL30 (from UniProt M1D1Z2)
- binding (NTH15 (tobacco)): binds
- binding (NTH20 (tobacco)): binds
- binding (NTH22 (tobacco)): binds

Substance: StBEL31 (from UniProt M0ZWL8)
- binding (NTH15 (tobacco)): binds
- binding (NTH20 (tobacco)): binds
- binding (NTH22 (tobacco)): binds

Substance: StBEL32 (from UniProt M0ZWL9)
- binding (NTH15 (tobacco)): binds
- binding (NTH20 (tobacco)): binds
- binding (NTH22 (tobacco)): binds

Substance: StBEL33 (from UniProt M1C8Y5)
- binding (NTH15 (tobacco)): binds

Substance: StBEL34 (from UniProt M1AE49)
- binding (NTH15 (tobacco)): binds
- binding (NTH20 (tobacco)): binds
- binding (NTH22 (tobacco)): binds

Substance: StBEL35 (from UniProt M1BNG6)
- binding (NTH15 (tobacco)): binds
- binding (NTH20 (tobacco)): binds
- binding (NTH22 (tobacco)): binds

Results are given in words; binding and its absence hold for the method and conditions named. Binding calls can cover weak binding; strength is not graded here.
